# PubChem BioAssay AID504467 (National Center for Advancing Translational Sciences (NCATS), 2011)
# The whole screen tested about 330,000 compounds, of which about 7,700 (2.3%) were called active. This list was built around the results that the source calls inconclusive (neither active nor inactive); the mix of calls is not that of the screen. Calls come from the whole dose curve; as a rule, active = well fitted inhibition curve with a large enough effect; inconclusive = small, poorly fitted or top-dose-only effect, or effect the other way; inactive = flat fitted curve, though single readings scatter. A potency beside an inconclusive call is a rough fit, not a confirmed value.
# Test: qHTS screen for small molecules that inhibit ELG1-dependent DNA repair in human embryonic kidney (HEK293T) cells expressing luciferase-tagged ELG1; note: nearly all actives have a fitted effect of over 55% in size
# Conditions: HEK293T ELG1-luciferase reporter, luminescence, 16 h, DNA damage induced by 5-fluorouridine; series mostly up to 46.1 µM
# Summary of the method: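 Reporter activity after DNA damage by 5-fluorouridine is monitored. Compound-treated cells incubate 16 hr at 37 °C, then ONE-Glo is added for 30 min before luminescence reading.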
# Potency is the fitted concentration of half-maximal effect.
row,Structure (SMILES),Potency
1,CCn1c(=O)cc(OCC(=O)NCc2cccs2)c2ccccc21,"inconclusive: 23.1 µM [activator, partial curve]"
2,NC(=O)CC(NC(=O)c1ccccc1)c1ccc(N2CCN(c3ccc(F)cc3)CC2)c([N+](=O)[O-])c1 (configuration not stated),"inconclusive: 14.6 µM [inhibitor, partial curve]"
3,CCN1C(=O)/C(=C\c2ccncc2)SC1=Nc1ccc(C)c(C)c1,"inconclusive: 29.1 µM [inhibitor, single point]"
4,Cc1c(C(=O)NCc2ccc3c(c2)OCO3)oc2ccc(S(=O)(=O)N3CCC(C)CC3)cc12,active: 8.2 µM
5,COc1ccc(-c2noc(-c3cc(C)cc(C)c3)n2)cc1OC,"inconclusive: 16.4 µM [activator, partial curve]"
6,CCOC(=O)C(Cc1ccccc1)NC(C)=O (configuration not stated),"inconclusive: 20.6 µM [activator, partial curve, poor fit]"
7,COc1ccc(-c2nnc(SCC(=O)NC3CCCCC3)o2)cc1OC,inactive
8,COc1cc(OC)cc(C(=O)NCc2nc(-c3ccccc3)no2)c1,"inconclusive: 25.9 µM [inhibitor, single point]"
9,Cn1c(=O)c2c(n3cnnc13)-c1ccccc1CC21CCCC1,"inconclusive: 16.4 µM [inhibitor, single point]"
10,COc1ccc2c(c1)-c1c(ssc1=S)C(C)(C)N2,active: 2.59 µM
11,COc1cc(/C=C/C(=O)C2C(=O)C=C(C)OC2=O)cc(OC)c1O (configuration not stated),active: 2.59 µM
12,COc1ccc(-c2cc(=O)c3c(O)cc(O[C@@H]4O[C@H](CO[C@@H]5O[C@@H](C)[C@H](O)[C@@H](O)[C@H]5O)[C@@H](O)[C@H](O)[C@H]4O)cc3o2)cc1O,"inconclusive: 5.8 µM [activator, partial curve, poor fit]"
13,CC(C)(C)OC(=O)NCc1ccc(NC(=O)c2nc[nH]c2C(=O)N[C@@H](Cc2ccccc2)C(=O)OCc2ccccc2)cc1,"inconclusive: 29.1 µM [inhibitor, single point]"
14,N#Cc1ccc(-c2nc3cc(Cl)ccc3c(=O)n2O)cc1,active: 11.6 µM
15,COc1ccc(Cc2nnc(SCc3ccc([N+](=O)[O-])cc3)o2)cc1,active: 23.1 µM
16,O=C(NCc1ccccc1Br)c1cccc2c1C(=O)c1ccc(-c3ccc(OC(F)(F)F)cc3)cc1S2(=O)=O,"inconclusive: 14.6 µM [activator, partial curve, poor fit]"
17,Cc1ccc(-c2cc(O)cc3sc(=O)oc23)cc1C,"inconclusive: 29.1 µM [activator, single point]"

# Another view of some results above.
row	Structure (SMILES)	Potency
13	CC(C)(C)OC(=O)NCc1ccc(NC(=O)c2nc[nH]c2C(=O)N[C@@H](Cc2ccccc2)C(=O)OCc2ccccc2)cc1	inconclusive: 29.1 µM [inhibitor, single point]
14	N#Cc1ccc(-c2nc3cc(Cl)ccc3c(=O)n2O)cc1	active: 11.6 µM
